Source: paper PMC6532931, “Structures suggest a mechanism for energy coupling by a family of organic anion transporters” (PLoS Biology, 2019)
No constants are given. Whether binding was seen depends on the method and setting.

Target: Escherichia coli D-galactonate/H+ symporter D-galactonate transporter (DgoT), wild type (E. coli) (UniProt P0AA76)
Assay: SEC; TSK 3000 column, purified detergent-solubilised DgoT; SEC buffer in the methods: 10 mM HEPES pH 7, 150 mM NaCl, 10% glycerol, 0.5 mM TCEP, 0.2% beta-NG; both purified

binding: no binding
B1: Escherichia coli D-galactonate/H+ symporter D-galactonate transporter (DgoT), wild type (protein, UniProt P0AA76 1-430)
chain: MDIPVNAAKPGRRRYLTLVMIFITVVICYVDRANLAVASAHIQEEFGITKAEMGYVFSAFAWLYTLCQIPGGWFLDRVGSRVTYFIAIFGWSVATLFQGFATGLMSLIGLRAITGIFEAPAFPTNNRMVTSWFPEHERASAVGFYTSGQFVGLAFLTPLLIWIQEMLSWHWVFIVTGGIGIIWSLIWFKVYQPPRLTKGISKAELDYIRDGGGLVDGDAPVKKEARQPLTAKDWKLVFHRKLIGVYLGQFAVASTLWFFLTWFPNYLTQEKGITALKAGFMTTVPFLAAFVGVLLSGWVADLLVRKGFSLGFARKTPIICGLLISTCIMGANYTNDPMMIMCLMALAFFGNGFASITWSLVSSLAPMRLIGLTGGVFNFAGGLGGITVPLVVGYLAQGYGFAPALVYISAVALIGALSYILLVGDVKRVG
